Data reported in the supplement of paper PMC8728848.
The other results are listed elsewhere or left out.

Key:
Experiment in all cases: glycan array binding signal (z-score within array); higher = stronger binding
Details in all cases: glycan notation: IUPAC condensed, linker removed
[1] = biological target: Gal(b1-4)GlcNAc(b1-3)Gal(b1-3)GalNAc
How it was run: (§1)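 The binding signal is a Z-score computed within each array and averaged over linkers. Arrays of the same protein sequence at different concentrations or buffers were also averaged together. Data originate from 3228 arrays in the Consortium for Functional Glycomics database, kept only where the protein sequence was available.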

[2] = biological target: Gal(b1-4)GlcNAc(b1-3)Gal(b1-3)GlcNAc
How it was run: as §1

[3] = biological target: Gal(b1-4)GlcNAc(b1-3)Gal(b1-4)Glc
How it was run: as §1

[4] = biological target: Gal(b1-4)GlcNAc(b1-3)Gal(b1-4)GlcNAc
How it was run: as §1

[5] = biological target: Gal(b1-4)GlcNAc(b1-3)Gal(b1-4)GlcNAc(b1-2)Man(a1-3)[Gal(b1-4)GlcNAc(b1-3)Gal(b1-4)GlcNAc(b1-2)Man(a1-6)]Man(b1-4)GlcNAc(b1-4)GlcNAc
How it was run: as §1

[6] = biological target: Gal(b1-4)GlcNAc(b1-3)Gal(b1-4)GlcNAc(b1-2)Man(a1-3)[Gal(b1-4)GlcNAc(b1-3)Gal(b1-4)GlcNAc(b1-2)Man(a1-6)]Man(b1-4)GlcNAc(b1-4)[Fuc(a1-6)]GlcNAc
How it was run: as §1

[7] = biological target: Gal(b1-4)GlcNAc(b1-3)Gal(b1-4)GlcNAc(b1-2)[Gal(b1-4)GlcNAc(b1-3)Gal(b1-4)GlcNAc(b1-6)]Man(a1-6)[Gal(b1-4)GlcNAc(b1-3)Gal(b1-4)GlcNAc(b1-2)Man(a1-3)]Man(b1-4)GlcNAc(b1-4)GlcNAc
How it was run: as §1

[8] = biological target: Gal(b1-4)GlcNAc(b1-3)Gal(b1-4)GlcNAc(b1-2)[Gal(b1-4)GlcNAc(b1-3)Gal(b1-4)GlcNAc(b1-6)]Man(a1-6)[Gal(b1-4)GlcNAc(b1-3)Gal(b1-4)GlcNAc(b1-2)Man(a1-3)]Man(b1-4)GlcNAc(b1-4)[Fuc(a1-6)]GlcNAc
How it was run: as §1

[9] = biological target: Gal(b1-4)GlcNAc(b1-3)Gal(b1-4)GlcNAc(b1-3)Gal(b1-4)GlcNAc
How it was run: as §1

[10] = biological target: Gal(b1-4)GlcNAc(b1-3)Gal(b1-4)GlcNAc(b1-3)Gal(b1-4)GlcNAc(b1-2)Man(a1-3)[Gal(b1-4)GlcNAc(b1-3)Gal(b1-4)GlcNAc(b1-3)Gal(b1-4)GlcNAc(b1-2)Man(a1-6)]Man(b1-4)GlcNAc(b1-4)GlcNAc
How it was run: as §1

[11] = biological target: Gal(b1-4)GlcNAc(b1-3)Gal(b1-4)GlcNAc(b1-3)Gal(b1-4)GlcNAc(b1-2)Man(a1-3)[Gal(b1-4)GlcNAc(b1-3)Gal(b1-4)GlcNAc(b1-3)Gal(b1-4)GlcNAc(b1-2)Man(a1-6)]Man(b1-4)GlcNAc(b1-4)[Fuc(a1-6)]GlcNAc
How it was run: as §1

[12] = biological target: Gal(b1-4)GlcNAc(b1-3)Gal(b1-4)GlcNAc(b1-3)Gal(b1-4)GlcNAc(b1-2)[Gal(b1-4)GlcNAc(b1-3)Gal(b1-4)GlcNAc(b1-3)Gal(b1-4)GlcNAc(b1-6)]Man(a1-6)[Gal(b1-4)GlcNAc(b1-3)Gal(b1-4)GlcNAc(b1-3)Gal(b1-4)GlcNAc(b1-2)Man(a1-3)]Man(b1-4)GlcNAc(b1-4)[Fuc(a1-6)]GlcNAc
How it was run: as §1

[13] = biological target: Gal(b1-4)GlcNAc(b1-3)Gal(b1-4)GlcNAc(b1-3)Gal(b1-4)GlcNAc(b1-3)Gal(b1-4)GlcNAc(b1-2)Man(a1-3)[Gal(b1-4)GlcNAc(b1-3)Gal(b1-4)GlcNAc(b1-3)Gal(b1-4)GlcNAc(b1-3)Gal(b1-4)GlcNAc(b1-2)Man(a1-6)]Man(b1-4)GlcNAc(b1-4)GlcNAc
How it was run: as §1

[14] = biological target: Gal(b1-4)GlcNAc(b1-3)Gal(b1-4)GlcNAc(b1-3)Gal(b1-4)GlcNAc(b1-3)Gal(b1-4)GlcNAc(b1-2)Man(a1-3)[Gal(b1-4)GlcNAc(b1-3)Gal(b1-4)GlcNAc(b1-3)Gal(b1-4)GlcNAc(b1-3)Gal(b1-4)GlcNAc(b1-2)Man(a1-6)]Man(b1-4)GlcNAc(b1-4)[Fuc(a1-6)]GlcNAc
How it was run: as §1

[15] = biological target: Gal(b1-4)GlcNAc(b1-3)Gal(b1-4)GlcNAc(b1-3)Gal(b1-4)GlcNAc(b1-3)Gal(b1-4)GlcNAc(b1-2)[Gal(b1-4)GlcNAc(b1-3)Gal(b1-4)GlcNAc(b1-3)Gal(b1-4)GlcNAc(b1-3)Gal(b1-4)GlcNAc(b1-6)]Man(a1-6)[Gal(b1-4)GlcNAc(b1-3)Gal(b1-4)GlcNAc(b1-3)Gal(b1-4)GlcNAc(b1-3)Gal(b1-4)GlcNAc(b1-2)Man(a1-3)]Man(b1-4)GlcNAc(b1-4)[Fuc(a1-6)]GlcNAc
How it was run: as §1

[16] = biological target: Gal(b1-4)GlcNAc(b1-3)Gal(b1-4)GlcNAc(b1-3)Gal(b1-4)GlcNAc(b1-3)Gal(b1-4)GlcNAc(b1-3)Gal(b1-4)GlcNAc(b1-2)Man(a1-3)[Gal(b1-4)GlcNAc(b1-3)Gal(b1-4)GlcNAc(b1-3)Gal(b1-4)GlcNAc(b1-3)Gal(b1-4)GlcNAc(b1-3)Gal(b1-4)GlcNAc(b1-2)Man(a1-6)]Man(b1-4)GlcNAc(b1-4)GlcNAc
How it was run: as §1

[17] = biological target: Gal(b1-4)GlcNAc(b1-3)Gal(b1-4)GlcNAc(b1-3)Gal(b1-4)GlcNAc(b1-3)Gal(b1-4)GlcNAc(b1-3)Gal(b1-4)GlcNAc(b1-2)Man(a1-3)[Gal(b1-4)GlcNAc(b1-3)Gal(b1-4)GlcNAc(b1-3)Gal(b1-4)GlcNAc(b1-3)Gal(b1-4)GlcNAc(b1-3)Gal(b1-4)GlcNAc(b1-2)Man(a1-6)]Man(b1-4)GlcNAc(b1-4)[Fuc(a1-6)]GlcNAc
How it was run: as §1

[18] = biological target: Gal(b1-4)GlcNAc(b1-3)Gal(b1-4)GlcNAc(b1-3)Gal(b1-4)GlcNAc(b1-3)Gal(b1-4)GlcNAc(b1-3)Gal(b1-4)GlcNAc(b1-2)[Gal(b1-4)GlcNAc(b1-3)Gal(b1-4)GlcNAc(b1-3)Gal(b1-4)GlcNAc(b1-3)Gal(b1-4)GlcNAc(b1-3)Gal(b1-4)GlcNAc(b1-6)]Man(a1-6)[Gal(b1-4)GlcNAc(b1-3)Gal(b1-4)GlcNAc(b1-3)Gal(b1-4)GlcNAc(b1-3)Gal(b1-4)GlcNAc(b1-3)Gal(b1-4)GlcNAc(b1-2)Man(a1-3)]Man(b1-4)GlcNAc(b1-4)[Fuc(a1-6)]GlcNAc
How it was run: as §1

[19] = biological target: Gal(b1-4)GlcNAc(b1-3)Gal(b1-4)GlcNAc(b1-3)Gal(b1-4)GlcNAc(b1-3)Gal(b1-4)GlcNAc(b1-3)Gal(b1-4)GlcNAc(b1-3)Gal(b1-4)GlcNAc(b1-2)Man(a1-3)[Gal(b1-4)GlcNAc(b1-3)Gal(b1-4)GlcNAc(b1-3)Gal(b1-4)GlcNAc(b1-3)Gal(b1-4)GlcNAc(b1-3)Gal(b1-4)GlcNAc(b1-3)Gal(b1-4)GlcNAc(b1-2)Man(a1-6)]Man(b1-4)GlcNAc(b1-4)GlcNAc
How it was run: as §1

[20] = biological target: Gal(b1-4)GlcNAc(b1-3)Gal(b1-4)GlcNAc(b1-3)GalNAc
How it was run: as §1

[21] = biological target: Gal(b1-4)GlcNAc(b1-3)Gal(b1-4)GlcNAc(b1-3)[Gal(b1-4)GlcNAc(b1-3)Gal(b1-4)GlcNAc(b1-6)]GalNAc
How it was run: as §1

[22] = biological target: Gal(b1-4)GlcNAc(b1-3)Gal(b1-4)GlcNAc(b1-6)[Gal(b1-3)]GalNAc
How it was run: as §1

B1: Endo180d1-D4 (Homo sapiens), Q9UBG0 (protein)
chain: MGPGRPAPAPWPRHLLRCVLLLGCLHLGRPGAPGDAALPEPNVFLIFSHGLQGCLEAQGGQVRVTPACNTSLPAQRWKWVSRNRLFNLGTMQCLGTGWPGTNTTASLGMYECDREALNLRWHCRTLGDQLSLLLGARTSNISKPGTLERGDQTRSGQWRIYGSEEDLCALPYHEVYTIQGNSHGKPCTIPFKYDNQWFHGCTSTGREDGHLWCATTQDYGKDERWGFCPIKSNDCETFWDKDQLTDSCYQFNFQSTLSWREAWASCEQQGADLLSITEIHEQTYINGLLTGYSSTLWIGLNDLDTSGGWQWSDNSPLKYLNWESDQPDNPSEENCGVIRTESSGGWQNRDCSIALPYVCKKKPNATAEPTPPDRWANVKVECEPSWQPFQGHCYRLQAEKRSWQESKKACLRGGGDLVSIHSMAELEFITKQIKQEVEELWIGLNDLKLQMNFEWSDGSLVSFTHWHPFEPNNFRDSLEDCVTIWGPEGRWNDSPCNQSLPSICKKAGQLSQGAAEEDHGCRKGWTWHSPSCYWLGEDQVTYSEARRLCTDHGSQLVTITNRFEQAFVSSLIYNWEGEYFWTALQDLNSTGSFFWLSGDEVMYTHWNRDQPGYSRGGCVALATGSAMGLWEVKNCTSFRARYICRQSLGTPVTPELPGPDPTPSLTGSCPQGWASDTKLRYCYKVFSSERLQDKKSWVQAQGACQELGAQLLSLASYEEEHFVANMLNKIFGESEPEIHEQHWFWIGLNRRDPRGGQSWRWSDGVGFSYHNFDRSRHDDDDIRGCAVLDLASLQWVAMQCDTQLDWICKIPRGTDVREPDDSPQGRREWLRFQEAEYKFFEHHSTWAQAQRICTWFQAELTSVHSQAELDFLSHNLQKFSRAQEQHWWIGLHTSESDGRFRWTDGSIINFISWAPGKPRPVGKDKKCVYMTASREDWGDQRCLTALPYICKRSNVTKETQPPDLPTTALGGCPSDWIQFLNKCFQVQGQEPQSRVKWSEAQFSCEQQEAQLVTITNPLEQAFITASLPNVTFDLWIGLHASQRDFQWVEQEPLMYANWAPGEPSGPSPAPSGNKPTSCAVVLHSPSAHFTGRWDDRSCTEETHGFICQKGTDPSLSPSPAALPPAPGTELSYLNGTFRLLQKPLRWHDALLLCESHNASLAYVPDPYTQAFLTQAARGLRTPLWIGLAGEEGSRRYSWVSEEPLNYVGWQDGEPQQPGGCTYVDVDGAWRTTSCDTKLQGAVCGVSSGPPPPRRISYHGSCPQGLADSAWIPFREHCYSFHMELLLGHKEARQRCQRAGGAVLSILDEMENVFVWEHLQSYEGQSRGAWLGMNFNPKGGTLVWQDNTAVNYSNWGPPGLGPSMLSHNSCYWIQSNSGLWRPGACTNITMGVVCKLPRAEQSSFSPSALPENPAALVVVLMAVLLLLALLTAALILYRRRQSIERGAFEGARYSRSSSSPTEATEKNILVSDMEMNEQQE
glycan array binding signal (z-score) [1]: -1.55
glycan array binding signal (z-score) [2]: 0.375
glycan array binding signal (z-score) [3]: -0.161
glycan array binding signal (z-score) [4]: -0.342
glycan array binding signal (z-score) [5]: -1.02
glycan array binding signal (z-score) [6]: 0.72
glycan array binding signal (z-score) [7]: 0.373
glycan array binding signal (z-score) [8]: 0.287
glycan array binding signal (z-score) [9]: -0.61
glycan array binding signal (z-score) [10]: -0.083
glycan array binding signal (z-score) [11]: -0.289
glycan array binding signal (z-score) [12]: -0.373
glycan array binding signal (z-score) [13]: -0.336
glycan array binding signal (z-score) [14]: 1.19
glycan array binding signal (z-score) [15]: 0.971
glycan array binding signal (z-score) [16]: -0.136
glycan array binding signal (z-score) [17]: 1.04
glycan array binding signal (z-score) [18]: 0.63
glycan array binding signal (z-score) [19]: 1.63
glycan array binding signal (z-score) [20]: 0.585
glycan array binding signal (z-score) [21]: 0.056
glycan array binding signal (z-score) [22]: -0.22
